# Measured values as given in PubChem BioAssay AID493014 (National Center for Advancing Translational Sciences (NCATS), 2011).
# Several values for one entry are separate records, joined by “and”; a condition that tells them apart may be missing. Equal entries are not always repeated. Among all 340,000 compounds or so, about 170 (0.05%) were called active. Inconclusive means that the source gave no clear call. Such entries were picked first, then a sample of the others. Calls come from the whole dose curve; as a rule, active = well fitted inhibition curve with a large enough effect in the signal ratio, with a control signal flat (not every such curve was filed as active); inconclusive = small, poorly fitted or top-dose-only effect, or effect the other way, or a change in a side signal; inactive = flat fitted curve, though single readings scatter; the % refers to the signal ratio. A potency beside an inconclusive call is a rough fit, not a confirmed value.
# Test: qHTS Assay to Find Inhibitors of Chronic Active B-Cell Receptor Signaling;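 for activity change, negative = inhibition: plate controls were basal doxycycline-induced cells for no effect and cells given 10 µM MG132 for full effect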
# Conditions: ABC-DLBCL IkBa-CBG/CBR reporter, luminescence ratio (green luciferase fused to IkBa over red control in TMD8 lymphoma cells), 4 h; activity change, negative = inhibition: at 46.1 µM (top of the series)
# How it was run: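 Concentration-response series (up to 46 uM) were applied to TMD8 dual-reporter cells for 4 h at 37C with doxycycline. Green/red ratio, after filter-overlap correction, defined %Activity; red signal alone was normalised to basal cells and zero luminescence.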
# Potency is the fitted concentration of half-maximal effect.
Compound,Potency,"activity change, negative = inhibition"
CC(=O)Cc1nsc(NC(=O)c2cc(-c3ccccc3Cl)oc2C)n1,"inconclusive: 14.6 µM [activator, single point]",
COc1ccc(CNC(=O)c2cc(-c3cc(C)cc(C)c3O)n[nH]2)cc1,"inconclusive: 17.8 µM [falling, partial curve]",
CCC(=O)OCC(=O)Nc1cc([N+](=O)[O-])ccc1OC,,inactive
Cc1ccc(-c2nc(C#N)c(NCCc3ccccn3)o2)cc1,,inconclusive: 10.8%
O=C(NC(Cc1c[nH]c2ccccc12)C(=O)Nc1ccc(F)cc1)c1cccs1 (stereo not given),,inconclusive: -17.2%
CSc1ccccc1NC(=O)CSc1nnc(COc2ccccc2)o1,"inconclusive: 15.8 µM [falling, partial curve, poor fit]",
O=C1c2ccccc2NC(c2ccccn2)N1c1ccccc1F (stereo not given),"inconclusive: 29.1 µM [falling, single point]",
Cc1nn(-c2ccccc2)c2c1C(c1cccs1)C(C#N)=C(N)O2 (stereo not given),"inconclusive: 8.2 µM [rising, partial curve, poor fit]",
O=C(NC(=S)NC1CCSC1=O)c1ccccc1 (stereo not given),"inconclusive: 29.1 µM [falling, single point]",
CCc1c(C)sc(NC(=O)c2ccco2)c1C(=O)N1CCCCC1,,inconclusive: 10.2%
O=C(CN1C(=O)c2ccccc2S1(=O)=O)N1CCN(Cc2ccc3c(c2)OCO3)CC1,,inconclusive: -12.3%
COc1ccc(C2C(C#N)=C(N)N(c3cccnc3)C3=C2C(=O)CCC3)cc1Cn1cc([N+](=O)[O-])cn1 (stereo not given),,inactive
COc1ccc(C(=O)NC(=S)N2CCN(C)CC2)cc1Br,,inactive
CCc1nnc(NC(=O)c2cccc(S(=O)(=O)N3CC(c4ccccc4)CC3=O)c2)s1 (stereo not given),"inconclusive: 0.0206 µM [falling, full curve, poor fit]",
O=[N+]([O-])c1ccc(SCCc2ccncc2)cc1,,inconclusive: 7.87% and inconclusive: -4.04%
Cc1cccc(C)c1NC(=O)COC(=O)CN1C(=O)C2CCCCC2C1=O (stereo not given),,inconclusive: 5.33%
CCn1c2ccccc2c2c3ncc4cccn4c3ccc21,,inconclusive: 23.8%
CN1CCN(c2ccccc2NC(=O)c2ccc(OCc3ccccc3)cc2)CC1,,inconclusive: 0.491%
O=C(O)CCn1c2ccccc2c2nc3ccccc3nc21,,inconclusive: 10.9%
CC(C)[C@H](NC(=O)N1c2ccccc2NC(=O)[C@@H]1C(C)C)C(=O)N[C@H](Cc1ccccc1)C(=O)O,"inconclusive: 35.5 µM [falling, single point]",

# Part of the list above, with tabs.
Compound	Potency	activity change, negative = inhibition
O=C1c2ccccc2NC(c2ccccn2)N1c1ccccc1F (stereo not given)	inconclusive: 29.1 µM [falling, single point]	
Cc1nn(-c2ccccc2)c2c1C(c1cccs1)C(C#N)=C(N)O2 (stereo not given)	inconclusive: 8.2 µM [rising, partial curve, poor fit]	
